According to the supplement of paper PMC10849652:
This is one part of the list.

By UniProt entry, the sequences of proteins in these tests, tags left out. Where a name states a change or a piece, a line headed by the entry shows the natural chain unless it says otherwise.
UniProt P52895: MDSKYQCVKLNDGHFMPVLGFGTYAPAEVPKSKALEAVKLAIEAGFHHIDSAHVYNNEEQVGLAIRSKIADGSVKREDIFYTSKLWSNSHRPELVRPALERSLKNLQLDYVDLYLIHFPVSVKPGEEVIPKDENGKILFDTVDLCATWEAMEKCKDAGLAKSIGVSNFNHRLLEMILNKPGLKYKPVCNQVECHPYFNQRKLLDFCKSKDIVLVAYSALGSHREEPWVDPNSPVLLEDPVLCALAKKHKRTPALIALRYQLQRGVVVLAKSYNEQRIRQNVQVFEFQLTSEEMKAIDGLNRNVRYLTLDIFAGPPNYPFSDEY
UniProt P78536: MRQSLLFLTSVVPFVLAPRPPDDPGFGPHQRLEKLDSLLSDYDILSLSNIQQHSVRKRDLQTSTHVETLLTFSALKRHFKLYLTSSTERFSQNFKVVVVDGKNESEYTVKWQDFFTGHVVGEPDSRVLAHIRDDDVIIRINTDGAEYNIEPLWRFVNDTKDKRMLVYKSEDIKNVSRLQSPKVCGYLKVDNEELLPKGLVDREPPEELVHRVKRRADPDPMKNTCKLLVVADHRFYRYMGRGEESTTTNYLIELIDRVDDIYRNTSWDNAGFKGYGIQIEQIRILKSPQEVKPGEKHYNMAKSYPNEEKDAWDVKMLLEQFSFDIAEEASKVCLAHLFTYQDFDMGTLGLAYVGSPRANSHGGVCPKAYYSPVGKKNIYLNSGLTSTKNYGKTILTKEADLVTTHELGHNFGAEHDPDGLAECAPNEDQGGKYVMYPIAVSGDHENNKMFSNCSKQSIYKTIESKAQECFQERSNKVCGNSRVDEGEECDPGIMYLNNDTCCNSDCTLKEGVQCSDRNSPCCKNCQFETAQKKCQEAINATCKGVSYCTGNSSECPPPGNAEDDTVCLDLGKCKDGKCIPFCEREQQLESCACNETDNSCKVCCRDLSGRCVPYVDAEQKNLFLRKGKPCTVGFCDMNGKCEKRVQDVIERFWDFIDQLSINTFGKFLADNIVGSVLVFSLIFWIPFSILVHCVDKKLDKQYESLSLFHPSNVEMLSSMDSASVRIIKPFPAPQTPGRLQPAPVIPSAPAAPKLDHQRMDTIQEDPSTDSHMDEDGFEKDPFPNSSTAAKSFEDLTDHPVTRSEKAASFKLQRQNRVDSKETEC
UniProt Q9H981, whole entry, looked up: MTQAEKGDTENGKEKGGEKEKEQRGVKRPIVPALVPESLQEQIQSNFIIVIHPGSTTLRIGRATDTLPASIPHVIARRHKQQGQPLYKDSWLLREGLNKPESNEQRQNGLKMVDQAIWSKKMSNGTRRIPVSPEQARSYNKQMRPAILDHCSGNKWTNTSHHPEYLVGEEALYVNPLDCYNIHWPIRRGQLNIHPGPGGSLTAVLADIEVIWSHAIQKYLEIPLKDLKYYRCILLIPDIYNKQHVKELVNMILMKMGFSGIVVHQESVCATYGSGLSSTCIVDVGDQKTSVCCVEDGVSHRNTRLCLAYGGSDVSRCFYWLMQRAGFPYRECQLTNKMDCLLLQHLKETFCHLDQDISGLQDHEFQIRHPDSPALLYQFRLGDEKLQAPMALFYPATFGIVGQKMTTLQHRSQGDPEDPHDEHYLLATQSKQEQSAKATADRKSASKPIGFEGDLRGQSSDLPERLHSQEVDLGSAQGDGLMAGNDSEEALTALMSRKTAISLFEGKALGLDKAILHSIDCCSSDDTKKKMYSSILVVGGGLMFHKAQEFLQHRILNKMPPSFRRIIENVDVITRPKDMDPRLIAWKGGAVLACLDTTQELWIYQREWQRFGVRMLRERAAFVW
UniProt Q9NRZ5: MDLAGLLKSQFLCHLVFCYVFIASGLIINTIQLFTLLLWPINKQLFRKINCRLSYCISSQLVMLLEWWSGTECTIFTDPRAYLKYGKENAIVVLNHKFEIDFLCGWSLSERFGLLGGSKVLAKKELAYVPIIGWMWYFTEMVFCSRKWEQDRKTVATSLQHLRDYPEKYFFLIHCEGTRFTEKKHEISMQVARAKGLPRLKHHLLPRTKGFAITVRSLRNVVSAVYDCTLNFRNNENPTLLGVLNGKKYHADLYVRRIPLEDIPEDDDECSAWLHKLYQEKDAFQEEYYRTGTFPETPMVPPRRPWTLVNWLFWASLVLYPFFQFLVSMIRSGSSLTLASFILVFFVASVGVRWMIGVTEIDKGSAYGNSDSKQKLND
UniProt O95081: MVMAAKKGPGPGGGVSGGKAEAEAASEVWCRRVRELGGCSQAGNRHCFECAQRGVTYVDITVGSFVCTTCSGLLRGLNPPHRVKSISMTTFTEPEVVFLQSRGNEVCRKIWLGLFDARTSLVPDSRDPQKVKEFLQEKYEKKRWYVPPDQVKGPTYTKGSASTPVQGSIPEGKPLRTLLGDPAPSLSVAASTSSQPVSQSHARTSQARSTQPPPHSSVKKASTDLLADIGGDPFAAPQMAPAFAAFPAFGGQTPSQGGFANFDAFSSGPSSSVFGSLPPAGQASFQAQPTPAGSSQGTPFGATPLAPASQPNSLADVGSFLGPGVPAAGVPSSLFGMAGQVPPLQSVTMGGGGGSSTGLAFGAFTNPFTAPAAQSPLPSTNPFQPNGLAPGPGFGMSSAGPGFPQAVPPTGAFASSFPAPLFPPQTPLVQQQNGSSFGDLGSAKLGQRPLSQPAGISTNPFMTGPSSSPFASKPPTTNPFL
UniProt P55196: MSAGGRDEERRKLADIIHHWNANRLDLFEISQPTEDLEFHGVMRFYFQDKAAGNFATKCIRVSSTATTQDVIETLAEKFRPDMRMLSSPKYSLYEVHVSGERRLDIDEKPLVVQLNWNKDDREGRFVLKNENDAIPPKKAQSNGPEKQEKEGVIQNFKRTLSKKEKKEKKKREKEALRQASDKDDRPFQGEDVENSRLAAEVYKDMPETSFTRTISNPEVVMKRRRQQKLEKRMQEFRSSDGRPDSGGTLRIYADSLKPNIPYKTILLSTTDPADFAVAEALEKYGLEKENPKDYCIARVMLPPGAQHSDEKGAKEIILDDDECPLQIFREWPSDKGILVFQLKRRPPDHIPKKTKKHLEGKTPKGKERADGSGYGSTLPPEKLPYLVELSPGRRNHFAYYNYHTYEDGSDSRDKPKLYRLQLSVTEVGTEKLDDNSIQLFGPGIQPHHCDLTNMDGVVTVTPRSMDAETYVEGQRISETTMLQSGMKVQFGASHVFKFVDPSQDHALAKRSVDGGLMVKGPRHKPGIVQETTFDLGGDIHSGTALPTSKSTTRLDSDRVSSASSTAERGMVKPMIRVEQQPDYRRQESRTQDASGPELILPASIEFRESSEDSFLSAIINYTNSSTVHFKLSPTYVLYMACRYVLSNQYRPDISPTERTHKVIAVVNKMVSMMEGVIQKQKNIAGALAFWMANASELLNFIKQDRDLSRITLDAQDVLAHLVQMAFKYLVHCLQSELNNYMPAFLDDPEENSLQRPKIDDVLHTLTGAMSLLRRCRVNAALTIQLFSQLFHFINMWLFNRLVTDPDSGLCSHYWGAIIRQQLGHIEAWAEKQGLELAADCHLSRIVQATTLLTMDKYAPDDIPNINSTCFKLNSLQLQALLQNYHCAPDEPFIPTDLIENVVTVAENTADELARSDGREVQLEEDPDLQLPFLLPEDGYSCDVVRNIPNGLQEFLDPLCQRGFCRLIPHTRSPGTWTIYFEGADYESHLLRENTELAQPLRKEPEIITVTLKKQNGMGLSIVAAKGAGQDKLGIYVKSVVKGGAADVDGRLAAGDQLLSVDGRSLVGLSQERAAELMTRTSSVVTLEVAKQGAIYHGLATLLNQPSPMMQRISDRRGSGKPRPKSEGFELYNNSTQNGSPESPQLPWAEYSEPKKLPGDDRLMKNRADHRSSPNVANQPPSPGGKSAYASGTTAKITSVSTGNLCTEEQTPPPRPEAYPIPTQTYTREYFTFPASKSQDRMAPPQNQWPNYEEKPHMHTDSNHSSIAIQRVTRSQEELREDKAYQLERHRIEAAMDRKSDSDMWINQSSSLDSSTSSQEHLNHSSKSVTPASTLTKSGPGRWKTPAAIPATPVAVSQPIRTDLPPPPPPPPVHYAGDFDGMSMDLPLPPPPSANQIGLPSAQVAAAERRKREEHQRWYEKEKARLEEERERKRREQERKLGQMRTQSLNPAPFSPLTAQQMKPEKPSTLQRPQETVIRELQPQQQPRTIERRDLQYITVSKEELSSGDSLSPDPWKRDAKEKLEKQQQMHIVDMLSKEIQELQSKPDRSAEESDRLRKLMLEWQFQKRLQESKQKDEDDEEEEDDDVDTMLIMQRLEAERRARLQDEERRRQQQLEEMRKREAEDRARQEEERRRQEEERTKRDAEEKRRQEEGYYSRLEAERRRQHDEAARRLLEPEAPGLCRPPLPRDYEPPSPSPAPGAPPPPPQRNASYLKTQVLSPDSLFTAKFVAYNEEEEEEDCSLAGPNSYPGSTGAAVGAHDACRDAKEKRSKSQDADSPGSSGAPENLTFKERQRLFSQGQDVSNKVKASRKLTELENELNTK

What was measured:
Assay in all cases: log2 fold change, soluble protein after heating vs DMSO (PISA); higher = thermal stabilisation; K562 lysate, 10 uM; active = over 0.2 and 3.5 SD of the protein, either way, in both replicates (recomputed)
erlotinib = compound: C#Cc1cccc(Nc2ncnc3cc(OCCOC)c(OCCOC)cc23)c1 [erlotinib]
Summary of the method: (§1)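 Dounce homogenisation of K562 pellets in PBS pH 7.4 with 1 mM MgCl2 produced a crude extract, used at 1 mg/mL protein. Exposure to 10 μM compound lasted 30 min, and aliquots were then heated for 3 min across 48°C-58°C, pooled and brought to 0.5% NP-40 at 4°C. The supernatant after 21,000xg for 90 min was quantified by TMTpro 16plex LC-MS/MS with channel sums equalised. Duplicate values are given as log-two fold change in thermal stability relative to solvent controls.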

[1] = compound: C/C(=N\NC(=O)C1=CC(=CC=C1)S(=O)(=O)N2CCOCC2)/C3=C(C=CC(=C3)Cl)O
Summary of the method: as §1

[2] = compound: C1=CC(=CC=C1C2=NC3=C(N2)C=C(C=C3)C(=O)N)OC4=CC=C(C=C4)Cl
Summary of the method: as §1

[3] = compound: C1=CC2=C(C=CC(=C2)/C=C\3/C(=O)NC(=NCC4=CC=CS4)S3)N=C1
Summary of the method: as §1

[4] = compound: C1=CC2=NC=CN=C2C=C1/C=C/3\C(=O)NC(=O)S3
Summary of the method: as §1

[5] = compound: C1=CC=C(C=C1)C2=NC(=C(N2)C3=CC=NC=C3)C4=CC(=C(C=C4)Cl)O
Summary of the method: as §1

[6] = compound: C1=CC=C2C(=C1)C3=NNC4=CC=CC(=C43)C2=O
Summary of the method: as §1

[7] = compound: C1CCN(C1)C(=O)NC2=CC=CC(=C2)NC3=NC=C(C(=N3)NCCC4=CN=CN4)Br
Summary of the method: as §1

[8] = compound: C1CN(CCC1(CC2=CC=C(C=C2)Cl)N)C3=NC=NC4=C3C=CN4
Summary of the method: as §1

IRAK-1-4 Inhibitor I = compound: C1COCCN1CCN2C3=CC=CC=C3N=C2NC(=O)C4=CC(=CC=C4)[N+](=O)[O-] [IRAK-1-4 Inhibitor I]
Summary of the method: as §1

ibrutinib = compound: C=CC(=O)N1CCC[C@@H](n2nc(-c3ccc(Oc4ccccc4)cc3)c3c(N)ncnc32)C1 [ibrutinib]
Summary of the method: as §1

[9] = compound: CC(=O)c1cnc2ccc(-c3cc(Cl)c(O)c(Cl)c3)nc2c1N[C@H]1CC[C@H](CN(C)C)CC1
Summary of the method: as §1

ralimetinib = compound: CC(C)(C)Cn1c(N)nc2ccc(-c3[nH]c(C(C)(C)C)nc3-c3ccc(F)cc3)nc21 [ralimetinib]
Summary of the method: as §1

[10] = compound: CC(C)(O)CC(=O)NCCn1ccc2ncnc(Nc3ccc(Oc4cccc(C(F)(F)F)c4)c(Cl)c3)c21
Summary of the method: as §1

[11] = compound: CC(C)C1=C2N=C(C=C(N2N=C1)NCC3=CC=CC=C3)NCCCCCCN
Summary of the method: as §1

[12] = compound: CC1=C(C(CC(=O)N1)C2=CC=C(C=C2)C(F)(F)F)C(=O)NC3=C(C=C4C(=C3)C=NN4)F
Summary of the method: as §1

[13] = compound: CC1=C(C2=C(C=C1)C(=O)C3=CC=CC=C3N2CCCN)C
Summary of the method: as §1

[14] = compound: CC1=C(C=C(C=C1)NC(=O)C2=CC(=CC=C2)C(C)(C)C#N)NC3=CC4=C(C=C3)N=CN(C4=O)C
Summary of the method: as §1

[15] = compound: CC1=C(C=C(C=C1)NC(=O)C2=CC(=CC=C2)N(C)C)NC(=O)C3=CC=C(C=C3)O
Summary of the method: as §1

[16] = compound: CC1=CC=C(C=C1)SC2=C3C=C(SC3=CN=C2)C(=O)N
Summary of the method: as §1

Measured: log2 fold change

AKR1C2 (UniProt P52895)
inactive: erlotinib 0.03 | [1] -0.167 | [2] 0.005 | [3] 0.015 | [4] 0.006 | [5] 0.013 | [6] -0.046 | [7] -0.033 | [8] 0.006 | IRAK-1-4 Inhibitor I -0.024 | ibrutinib 0.031 | [9] 0.021 | ralimetinib -0.043 | [10] -0.035 | [11] 0.025 | [12] -0.025 | [13] 0.038 | [14] -0.013 | [15] 0.018 | [16] 0.019

ADAM17 (UniProt P78536)
inactive: erlotinib 0.021 | [1] -0.013 | [2] 0.017 | [3] 0.023 | [4] -0.023 | [5] 0.044 | [6] -0.115 | [7] 0.052 | [8] -0.093 | IRAK-1-4 Inhibitor I 0.04 | ibrutinib 0.037 | ralimetinib -0.012 | [10] -0.032 | [11] -0.056 | [12] 0.16 | [13] -0.029 | [14] -0.013 | [15] -0.027

ACTR8 (UniProt Q9H981)
inactive: erlotinib -0.296 | [2] 0.173 | [5] 0.131 | [7] 0.101 | [8] 0.099 | IRAK-1-4 Inhibitor I -0.087 | [9] -0.213 | ralimetinib 0.192 | [10] -0.185 | [11] -0.058 | [12] -0.088 | [13] -0.128 | [15] 0.157 | [16] 0.121

AGPAT4 (UniProt Q9NRZ5)
inactive: erlotinib 0.08 | [2] -0.024 | [4] 0.176 | [5] -0.073 | [7] 0.072 | [8] -0.042 | IRAK-1-4 Inhibitor I -0.024 | ibrutinib -0.001 | ralimetinib -0.026 | [10] 0.06 | [11] 0.053 | [14] -0.025 | [15] 0.032

AGFG2 (UniProt O95081)
inactive: erlotinib 0.008 | [1] -0.201 | [2] 0.158 | [3] -0.044 | [5] -0.031 | [6] 0.035 | [7] 0.01 | [8] 0.04 | IRAK-1-4 Inhibitor I -0.04 | [9] 0.202 | ralimetinib 0.11 | [10] 0.117 | [11] -0.244 | [13] 0 | [14] -0.088 | [15] -0.067 | [16] 0

ACTN2, A0A494C031
inactive: erlotinib -0.005 | [1] -0.351 | [2] 0.124 | [3] -0.081 | [4] 0.026 | [5] -0.059 | [6] -0.066 | [7] -0.087 | [8] -0.017 | IRAK-1-4 Inhibitor I 0.153 | ibrutinib 0.042 | [9] -0.008 | ralimetinib -0.121 | [10] -0.549 | [11] -0.132 | [12] 0.155 | [14] -0.003 | [15] -0.118 | [16] -0.056

AFDN isoform 1 (UniProt P55196)
inactive: erlotinib 0.013 | [1] -0.017 | [2] -0.012 | [3] -0.013 | [4] -0.012 | [5] -0.002 | [6] -0.02 | [7] -0.015 | [8] 0.002 | IRAK-1-4 Inhibitor I 0.007 | ibrutinib -0.006 | [9] -0.006 | ralimetinib 0.01 | [10] -0.007 | [11] -0.013 | [12] -0.011 | [13] -0.002 | [14] 0.012 | [15] 0.016 | [16] 0
